Measured values published in paper doi:10.1101/2022.09.09.507218.
No constants are given. Whether binding was seen depends on the method and setting. In cells and extracts the contact can be indirect. Some binding calls cover weakened binding; strength is not graded here.

Protein sequences, listed by entry. Tags and fused reporters are not part of them.
UniProt Q02821: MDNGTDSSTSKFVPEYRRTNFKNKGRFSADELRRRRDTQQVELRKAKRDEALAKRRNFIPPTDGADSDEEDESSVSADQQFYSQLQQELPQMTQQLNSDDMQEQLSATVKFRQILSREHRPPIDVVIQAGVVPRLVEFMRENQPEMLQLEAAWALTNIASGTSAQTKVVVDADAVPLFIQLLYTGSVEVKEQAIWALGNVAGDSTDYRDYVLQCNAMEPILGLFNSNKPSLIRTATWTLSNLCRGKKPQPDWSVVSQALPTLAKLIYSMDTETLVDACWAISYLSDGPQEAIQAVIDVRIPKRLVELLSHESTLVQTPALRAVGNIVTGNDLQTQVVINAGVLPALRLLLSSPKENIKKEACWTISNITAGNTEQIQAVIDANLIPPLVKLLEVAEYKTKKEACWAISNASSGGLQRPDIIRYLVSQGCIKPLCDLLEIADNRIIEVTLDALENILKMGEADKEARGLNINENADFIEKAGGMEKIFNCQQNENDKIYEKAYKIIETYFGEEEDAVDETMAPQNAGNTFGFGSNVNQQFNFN

Target: Kap60-3FLAG (S. cerevisiae) (UniProt Q02821)
Assay: co-IP

B1: Stu2^WT-3V5 (protein, UniProt P46675 1-888)
chain: MSGEEEVDYTTLPLEERLTYKLWKARLEAYKELNQLFRNSVGDISRDDNIQIYWRDPTLFAQYITDSNVVAQEQAIVALNSLIDAFASSSLKNAHNITLISTWTPLLVEKGLTSSRATTKTQSMSCILSLCGLDTSITQSVELVIPFFEKKLPKLIAAAANCVYELMAAFGLTNVNVQTFLPELLKHVPQLAGHGDRNVRSQTMNLIVEIYKVTGNNSDLLEEILFKKLKPIQVKDLHKLFAKVGDEPSSSKMLFEWEKRELEKKRSQEEEARKRKSILSNDEGEYQIDKDGDTLMGMETDMPPSKQQSGVQIDTFSMLPEETILDKLPKDFQERITSSKWKDRVEALEEFWDSVLSQTKKLKSTSQNYSNLLGIYGHIIQKDANIQAVALAAQSVELICDKLKTPGFSKDYVSLVFTPLLDRTKEKKPSVIEAIRKALLTICKYYDPLASSGRNEDMLKDILEHMKHKTPQIRMECTQLFNASMKEEKDGYSTLQRYLKDEVVPIVIQIVNDTQPAIRTIGFESFAILIKIFGMNTFVKTLEHLDNLKRKKIEETVKTLPNFSIASGSTHSTIETNKQTGPMENKFLLKKSSVLPSKRVASSPLRNDNKSKVNPIGSVASASKPSMVAANNKSRVLLTSKSLATPKNVVANSTDKNEKLIEEYKYRLQKLQNDEMIWTKERQSLLEKMNNTENYKIEMIKENEMLREQLKEAQSKLNEKNIQLRSKEIDVNKLSDRVLSLENELRNMEIELDRNKKRNDTNLQSMGTISSYSIPSSTVSSNYGVKSLSSALPFKEEEDVRRKEDVNYERRSSESIGDLPHRVNSLNIRPYRKNGTGVSSVSDDLDIDFNDSFASEESYKRAAAVTSTLKARIEKMKAKSRREGTTRT
binding: binds
